## Primary screen of a compound library

The chains behind the UniProt entries cited, without tags or fusion partners. Residues count along the entry.
UniProt P9WNZ1, whole entry: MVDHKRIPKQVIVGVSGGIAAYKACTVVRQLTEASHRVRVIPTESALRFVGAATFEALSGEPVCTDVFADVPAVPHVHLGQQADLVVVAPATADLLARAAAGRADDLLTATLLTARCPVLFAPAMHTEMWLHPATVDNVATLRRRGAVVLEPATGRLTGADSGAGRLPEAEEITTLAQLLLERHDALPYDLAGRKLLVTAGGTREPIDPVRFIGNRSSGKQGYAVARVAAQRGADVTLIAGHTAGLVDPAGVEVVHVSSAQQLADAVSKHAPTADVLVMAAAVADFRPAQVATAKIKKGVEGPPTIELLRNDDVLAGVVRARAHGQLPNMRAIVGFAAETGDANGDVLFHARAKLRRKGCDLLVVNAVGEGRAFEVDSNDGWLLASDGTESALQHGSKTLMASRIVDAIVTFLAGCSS
UniProt I6X8D2, whole entry: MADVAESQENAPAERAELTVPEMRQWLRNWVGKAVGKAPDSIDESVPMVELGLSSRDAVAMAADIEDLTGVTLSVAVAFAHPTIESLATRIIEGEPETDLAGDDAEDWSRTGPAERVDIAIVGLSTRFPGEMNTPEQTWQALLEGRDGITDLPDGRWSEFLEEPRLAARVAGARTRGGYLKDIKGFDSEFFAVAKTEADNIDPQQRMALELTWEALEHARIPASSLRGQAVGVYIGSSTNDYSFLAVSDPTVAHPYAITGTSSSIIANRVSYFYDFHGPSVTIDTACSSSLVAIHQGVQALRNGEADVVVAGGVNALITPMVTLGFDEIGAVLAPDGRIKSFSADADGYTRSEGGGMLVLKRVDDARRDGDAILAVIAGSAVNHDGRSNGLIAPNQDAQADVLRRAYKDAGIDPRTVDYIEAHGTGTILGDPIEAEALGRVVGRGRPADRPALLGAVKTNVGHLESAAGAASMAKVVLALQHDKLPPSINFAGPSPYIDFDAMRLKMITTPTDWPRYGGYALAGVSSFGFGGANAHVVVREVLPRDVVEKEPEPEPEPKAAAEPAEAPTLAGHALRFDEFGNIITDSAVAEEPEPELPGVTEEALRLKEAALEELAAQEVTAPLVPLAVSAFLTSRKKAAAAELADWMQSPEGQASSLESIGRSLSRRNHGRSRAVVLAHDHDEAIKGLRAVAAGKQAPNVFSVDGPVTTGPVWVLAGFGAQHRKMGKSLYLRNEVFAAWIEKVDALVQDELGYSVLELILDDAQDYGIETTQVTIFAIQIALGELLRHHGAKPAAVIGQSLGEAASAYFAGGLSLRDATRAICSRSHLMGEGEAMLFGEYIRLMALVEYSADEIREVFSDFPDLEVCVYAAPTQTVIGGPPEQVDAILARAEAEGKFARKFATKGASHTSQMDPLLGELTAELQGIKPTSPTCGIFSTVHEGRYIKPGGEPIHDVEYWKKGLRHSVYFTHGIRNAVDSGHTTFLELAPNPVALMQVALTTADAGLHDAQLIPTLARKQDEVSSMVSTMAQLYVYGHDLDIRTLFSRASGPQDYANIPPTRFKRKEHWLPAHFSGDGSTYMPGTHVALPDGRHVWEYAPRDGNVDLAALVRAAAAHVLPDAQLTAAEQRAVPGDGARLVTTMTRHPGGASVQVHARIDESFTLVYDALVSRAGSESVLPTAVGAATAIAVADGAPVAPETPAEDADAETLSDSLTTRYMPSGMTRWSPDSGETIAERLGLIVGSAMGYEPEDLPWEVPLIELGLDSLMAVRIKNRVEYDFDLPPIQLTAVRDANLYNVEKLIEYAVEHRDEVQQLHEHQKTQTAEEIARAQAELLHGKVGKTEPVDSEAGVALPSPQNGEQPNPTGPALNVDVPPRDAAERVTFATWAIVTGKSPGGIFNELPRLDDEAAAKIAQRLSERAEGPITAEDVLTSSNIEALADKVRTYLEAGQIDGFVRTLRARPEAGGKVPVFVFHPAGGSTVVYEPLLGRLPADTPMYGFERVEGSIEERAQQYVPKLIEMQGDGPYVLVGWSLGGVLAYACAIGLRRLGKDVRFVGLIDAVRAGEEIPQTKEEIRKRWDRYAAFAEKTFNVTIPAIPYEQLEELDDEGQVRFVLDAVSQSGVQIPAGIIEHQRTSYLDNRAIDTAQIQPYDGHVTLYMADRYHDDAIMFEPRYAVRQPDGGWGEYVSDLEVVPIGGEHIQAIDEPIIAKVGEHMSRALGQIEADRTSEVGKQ
UniProt P9WPC5, whole entry: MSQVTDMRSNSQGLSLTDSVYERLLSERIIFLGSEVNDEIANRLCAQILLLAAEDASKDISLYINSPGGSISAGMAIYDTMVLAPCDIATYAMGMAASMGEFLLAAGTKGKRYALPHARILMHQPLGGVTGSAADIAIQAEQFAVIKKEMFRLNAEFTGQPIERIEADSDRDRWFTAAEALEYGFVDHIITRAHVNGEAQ
UniProt P9WPC3, whole entry partner: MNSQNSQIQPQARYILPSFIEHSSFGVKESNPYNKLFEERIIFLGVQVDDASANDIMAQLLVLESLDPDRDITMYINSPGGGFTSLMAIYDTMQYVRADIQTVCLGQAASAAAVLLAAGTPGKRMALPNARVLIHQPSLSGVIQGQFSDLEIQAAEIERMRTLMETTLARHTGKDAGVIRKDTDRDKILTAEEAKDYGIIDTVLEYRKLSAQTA
UniProt A4I591, 1-473: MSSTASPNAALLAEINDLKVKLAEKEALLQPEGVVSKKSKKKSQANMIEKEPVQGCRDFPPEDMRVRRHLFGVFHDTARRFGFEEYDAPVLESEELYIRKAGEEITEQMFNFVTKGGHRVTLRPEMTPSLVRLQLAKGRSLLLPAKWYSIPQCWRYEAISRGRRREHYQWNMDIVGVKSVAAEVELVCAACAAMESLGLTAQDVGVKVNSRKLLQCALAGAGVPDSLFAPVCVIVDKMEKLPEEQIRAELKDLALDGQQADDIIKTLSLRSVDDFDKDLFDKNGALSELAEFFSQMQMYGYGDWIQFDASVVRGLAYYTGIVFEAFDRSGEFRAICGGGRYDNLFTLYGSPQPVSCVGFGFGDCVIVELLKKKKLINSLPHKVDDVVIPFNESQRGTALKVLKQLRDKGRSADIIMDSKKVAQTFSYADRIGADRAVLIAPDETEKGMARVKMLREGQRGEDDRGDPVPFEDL
UniProt P9WFT3, whole entry: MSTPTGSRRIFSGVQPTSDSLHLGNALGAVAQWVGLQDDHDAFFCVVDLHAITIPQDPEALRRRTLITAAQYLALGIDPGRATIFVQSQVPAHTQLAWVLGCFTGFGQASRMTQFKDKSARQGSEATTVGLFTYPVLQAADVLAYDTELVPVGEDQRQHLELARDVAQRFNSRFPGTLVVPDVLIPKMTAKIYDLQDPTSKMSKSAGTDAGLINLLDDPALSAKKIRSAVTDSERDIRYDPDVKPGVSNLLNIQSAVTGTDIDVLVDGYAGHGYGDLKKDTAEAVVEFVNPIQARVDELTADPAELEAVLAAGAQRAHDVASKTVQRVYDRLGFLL

The filed quantity is “Percent Effect” (%).
How 0% and 100% were set is not recorded. Most values in the screen are low, and negative values occur.
This is an unselected part of the compounds tested.
A dash means the value is not listed here; it may have been measured.

CoaBC: 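Enzyme assay of CoaBC with a phosphate dye (Biomol Green) read at 650 nm. Target: Coenzyme A biosynthesis protein CoaBC, Mycobacterium tuberculosis (UniProt P9WNZ1). Concentration: 30 µM. Direction is inferred from only a few compounds that gave an IC50; most scored high, so higher reads as stronger inhibition. Most strong results did not repeat in a second test. About 67,000 compounds were tested under these conditions; 0.06% (about 40) showed 50% or more at least once.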
Pks13 thioesterase: 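Enzyme assay of the thioesterase domain of polyketide synthase 13; the read-out is not stated. Target: Polyketide synthase Pks13, Mycobacterium tuberculosis (UniProt I6X8D2). Tested at 30 µM. The record gives no direction; the compounds picked for IC50 retests had high values, so higher reads as stronger inhibition. About 67,000 compounds were tested under these conditions; 0.46% (about 300) showed 50% or more at least once.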
ClpP1P2: 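Protease assay of ClpP1P2, read by the AMC dye that it sets free. Target: ClpP1P2, Mycobacterium tuberculosis (UniProt P9WPC5 and UniProt P9WPC3). Compounds at 50 µM. Direction is inferred from only a few compounds that gave an IC50; most scored high, so higher reads as stronger inhibition. Most other retested compounds had strongly negative values. Of about 69,000 compounds tested this way, about 10 (0.015%) reached 50% or more in at least one test.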
Toxoplasma: 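Assay of Toxoplasma gondii numbers, read through their beta-galactosidase reporter with a colour substrate. Tested at 10 µM. Higher reads as fewer parasites (inferred from which compounds were picked for retests). About 67,000 compounds were tested under these conditions; 0.38% (about 260) showed 50% or more at least once.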
LiHisRS: 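Histidine-tRNA ligase, Leishmania infantum (UniProt A4I591). Enzyme assay of histidyl-tRNA synthetase; the read-out is not stated. Concentration: 30 µM. The record gives no direction; compounds that gave an IC50 in retests scored well above the rest, so higher reads as stronger inhibition. The assay is labelled LdHisRS but filed under L. infantum. Size under these conditions: about 69,000 compounds, about 410 of them at 50% or above in at least one test.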
MtTrpRS: 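Enzyme assay of tryptophanyl-tRNA synthetase; the read-out is not stated. Target: Tryptophan-tRNA ligase, Mycobacterium tuberculosis (UniProt P9WFT3). Compounds at 10 µM. Direction is not recorded; retested compounds ran higher, which suggests that high means inhibition. About 65,000 compounds were tested under these conditions; 0.098% (about 64) showed 50% or more at least once.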

For [H][C@]12CCCCN1CCC[C@H]2COc1ccc2c(c1)OCC2=O the result was Toxoplasma: -3.393%. O=C(C1CC(=O)N(c2ccccc2Br)C1)N1CCCCCC1 (configuration not stated) gave CoaBC: -0.3745%; Pks13 thioesterase: -11.38%; ClpP1P2: 2.19%; Toxoplasma: 5.837%; LiHisRS: 9.917%; MtTrpRS: -0.9382%. For CC(NCc1cccc(NC(=O)C2CCCCC2)c1)c1cnn(C)c1 (configuration not stated) the result was CoaBC: 3.236%; Pks13 thioesterase: 9.255%; ClpP1P2: -10.87%; Toxoplasma: 4.075%; LiHisRS: 8.235%; MtTrpRS: 0.9084%. Cc1ccc(N2CCCC(NCc3nnc(-c4ccco4)o3)C2)nn1 (configuration not stated) read CoaBC: 2.632%; Pks13 thioesterase: -17.67%; ClpP1P2: -21.41%; Toxoplasma: -3.443%; LiHisRS: 34.26%; MtTrpRS: -2.807%.

For CCc1ccc(CN(CCCn2ccnc2)Cc2ccc(C)s2)o1.O=C(O)CC(O)(CC(=O)O)C(=O)O the result was Toxoplasma: 5.317%. For Cc1nc(C)n(CC2CCCN(c3ccc(C#N)cn3)C2)n1 (configuration not stated) the result was CoaBC: -4.47%; Pks13 thioesterase: -3.88%; ClpP1P2: -30.68%; Toxoplasma: 7.018%; LiHisRS: 13.39%; MtTrpRS: -7.704%. O=C(O)c1nnn(-c2ccc(C(F)(F)F)cc2)c1-c1ccncc1 read CoaBC: 4.304%; Pks13 thioesterase: -1.418%; ClpP1P2: 4.034%; Toxoplasma: 5.056%; LiHisRS: 15.79%; MtTrpRS: -1.022%. With CCCN1CCCn2nc(CNC(=O)C3CCOC3)cc2C1 (configuration not stated) the screen gave CoaBC: 4.701%; Pks13 thioesterase: -43.79%; ClpP1P2: -24.59%; Toxoplasma: 13.02%; LiHisRS: 13.68%; MtTrpRS: -4.782%.

CS(=O)(=O)NCCN1CCOC2(CCc3ccccc32)C1 (configuration not stated) read CoaBC: 12.47%; Pks13 thioesterase: -26.3%; ClpP1P2: -6.519%; Toxoplasma: 6.566%; LiHisRS: 13.7%; MtTrpRS: 1.043%. Cc1cc(F)c(C(C(=O)O)N2CCN(Cc3ccccn3)CC2)cc1Cl (configuration not stated) gave CoaBC: 19.44%; Pks13 thioesterase: 3.729%; ClpP1P2: 2.161%; Toxoplasma: 5.772%; LiHisRS: 25%; MtTrpRS: -5.346%. For O=C([C@@H]1C[C@@H]2CCN(Cc3ccc4c(c3)OCO4)C[C@@H]2O1)N1CCCC1 the result was CoaBC: 12.61%; Pks13 thioesterase: -6.816%; ClpP1P2: 4.945%; LiHisRS: 18.18%; MtTrpRS: -0.6975%. For COc1ccc(-c2csc3c2c(N)nc(=O)n3CC(N)=O)cc1 the result was CoaBC: 1.768%; Pks13 thioesterase: -23.1%; ClpP1P2: -3.917%; Toxoplasma: -9.904%; LiHisRS: 18.42%; MtTrpRS: 1.471%.

With CCN1CC2(CCOCC2)c2cc(NS(=O)(=O)CC)ccc21 the screen gave CoaBC: 3.094%; Pks13 thioesterase: 14.44%; ClpP1P2: 1.46%; LiHisRS: 75.25%. CNc1nc(C(=O)N2CCCC(c3nccn3CC3CCC3)C2)cs1 (configuration not stated) gave CoaBC: -10.02%; Pks13 thioesterase: -13.55%; ClpP1P2: -7.485%; Toxoplasma: 0.9852%; LiHisRS: 26.92%; MtTrpRS: 7.199%. O=C1NCCCCC1Sc1n[nH]c(=O)n1C1CC1 (configuration not stated) read CoaBC: -2.244%; Pks13 thioesterase: -14.05%; ClpP1P2: 5.408%; Toxoplasma: -2.528%; LiHisRS: 17.81%; MtTrpRS: -0.7936%. COc1ccc(CN(C(=O)C2CCOCC2)c2ccncc2)cc1 gave CoaBC: 1.34%; Pks13 thioesterase: -17.97%; ClpP1P2: -8.191%; Toxoplasma: 1.748%; LiHisRS: 9.677%; MtTrpRS: -2.004%.

Cn1c(N2CCOCC2)nc2cc(C(=O)N3CC(O)CO3)ccc21 (configuration not stated) gave CoaBC: -0.5102%; Pks13 thioesterase: -7.332%; ClpP1P2: -7.885%; Toxoplasma: 30.48%; LiHisRS: -8.642%; MtTrpRS: 0.7638%.

2 of the entries, repeated:

| compound | CoaBC | Pks13 thioesterase | ClpP1P2 | Toxoplasma | LiHisRS | MtTrpRS |
|---|---|---|---|---|---|---|
| `CS(=O)(=O)NCCN1CCOC2(CCc3ccccc32)C1` (configuration not stated) | 12.47 | -26.3 | -6.519 | 6.566 | 13.7 | 1.043 |
| `O=C([C@@H]1C[C@@H]2CCN(Cc3ccc4c(c3)OCO4)C[C@@H]2O1)N1CCCC1` | 12.61 | -6.816 | 4.945 | - | 18.18 | -0.6975 |

Measurements from “University of Dundee, Small-Polar-MMV Screening Library” (2021), ChEMBL document CHEMBL3988442.